According to patent US20170247454A1 (Hoffmann-La Roche, published 2017):
Results are given in words; binding and its absence hold for the method and conditions named. A result given as binding can be weak or reduced; the word gives no strength.

Target: biotinylated cynoPD1-ECD-Biotin (cynomolgus)
Assay: ELISA for cyno PD1 (row 'cynomolgus crossreactivity (EC50 [nm]')

B1: chimeric PD1-0103 (antibody, V domains shown)
VH: EVILVESGGGLVKPGGSLKLSCAASGFSFSSYTMSWVRQTPEKRLDWVATISGGGRDIYYPDSVKGRFTISRDNAKNTLYLEMSSLMSEDTALYYCVLLTGRVYFALDSWGQGTSVTVSS
VL: KIVLTQSPASLPVSLGQRATISCRASESVDTSDNSFIHWYQQRPGQSPKLLIYRSSTLESGVPARFSGSGSRTDFTLTIDPVEADDVATYYCQQNYDVPWTFGGGTKLEIK
- binding: binds
